Experimental data taken from paper PMC10911279.
Results are given in words; binding and its absence hold for the method and conditions named. Binding seen in cells or lysates may run through a third protein. Binding can be weak; no strength is given. Tags and fused reporters may be left off the sequences shown.

T1: Vap33-V5 (Drosophila) (UniProt Q9W4N8)
T1 sequence: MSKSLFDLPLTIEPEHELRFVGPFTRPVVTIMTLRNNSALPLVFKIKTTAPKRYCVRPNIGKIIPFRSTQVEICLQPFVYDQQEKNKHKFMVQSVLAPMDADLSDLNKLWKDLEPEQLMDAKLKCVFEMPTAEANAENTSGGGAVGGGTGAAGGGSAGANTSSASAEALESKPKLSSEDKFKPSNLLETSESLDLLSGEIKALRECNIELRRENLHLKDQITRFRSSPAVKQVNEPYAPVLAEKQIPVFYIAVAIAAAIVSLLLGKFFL


Legend:
Vap33-V5 (Drosophila) = target: T1, Vap33-V5 (Drosophila); assay: co-IP; co-transfected S2 cells; lysates in DLB incubated with anti-V5, anti-HA or anti-Flag beads for 2 h at 4°C; western blot
RtGEF-HA (Drosophila) = assay: as above

binding (Vap33-V5 (Drosophila)) | binding (RtGEF-HA (Drosophila)) | Molecule
binds |  | RtGEF-HA (Drosophila)
 | binds | Vap33-V5 (protein, UniProt Q9W4N8 1-269) MSKSLFDLPLTIEPEHELRFVGPFTRPVVTIMTLRNNSALPLVFKIKTTAPKRYCVRPNIGKIIPFRSTQVEICLQPFVYDQQEKNKHKFMVQSVLAPMDADLSDLNKLWKDLEPEQLMDAKLKCVFEMPTAEANAENTSGGGAVGGGTGAAGGGSAGANTSSASAEALESKPKLSSEDKFKPSNLLETSESLDLLSGEIKALRECNIELRRENLHLKDQITRFRSSPAVKQVNEPYAPVLAEKQIPVFYIAVAIAAAIVSLLLGKFFL
